Results as given in patent US20060286584A1.
No constants are given. Whether binding was seen depends on the method and setting. For part of these data: In cells and extracts the contact can be indirect. Some results given as binding are weak or reduced against the parent protein; the word gives no strength. Tags and fused reporters may be left off the sequences shown.

T1: V5-tagged Wts (Warts) (Drosophila) (UniProt Q9VA38)
T1 sequence: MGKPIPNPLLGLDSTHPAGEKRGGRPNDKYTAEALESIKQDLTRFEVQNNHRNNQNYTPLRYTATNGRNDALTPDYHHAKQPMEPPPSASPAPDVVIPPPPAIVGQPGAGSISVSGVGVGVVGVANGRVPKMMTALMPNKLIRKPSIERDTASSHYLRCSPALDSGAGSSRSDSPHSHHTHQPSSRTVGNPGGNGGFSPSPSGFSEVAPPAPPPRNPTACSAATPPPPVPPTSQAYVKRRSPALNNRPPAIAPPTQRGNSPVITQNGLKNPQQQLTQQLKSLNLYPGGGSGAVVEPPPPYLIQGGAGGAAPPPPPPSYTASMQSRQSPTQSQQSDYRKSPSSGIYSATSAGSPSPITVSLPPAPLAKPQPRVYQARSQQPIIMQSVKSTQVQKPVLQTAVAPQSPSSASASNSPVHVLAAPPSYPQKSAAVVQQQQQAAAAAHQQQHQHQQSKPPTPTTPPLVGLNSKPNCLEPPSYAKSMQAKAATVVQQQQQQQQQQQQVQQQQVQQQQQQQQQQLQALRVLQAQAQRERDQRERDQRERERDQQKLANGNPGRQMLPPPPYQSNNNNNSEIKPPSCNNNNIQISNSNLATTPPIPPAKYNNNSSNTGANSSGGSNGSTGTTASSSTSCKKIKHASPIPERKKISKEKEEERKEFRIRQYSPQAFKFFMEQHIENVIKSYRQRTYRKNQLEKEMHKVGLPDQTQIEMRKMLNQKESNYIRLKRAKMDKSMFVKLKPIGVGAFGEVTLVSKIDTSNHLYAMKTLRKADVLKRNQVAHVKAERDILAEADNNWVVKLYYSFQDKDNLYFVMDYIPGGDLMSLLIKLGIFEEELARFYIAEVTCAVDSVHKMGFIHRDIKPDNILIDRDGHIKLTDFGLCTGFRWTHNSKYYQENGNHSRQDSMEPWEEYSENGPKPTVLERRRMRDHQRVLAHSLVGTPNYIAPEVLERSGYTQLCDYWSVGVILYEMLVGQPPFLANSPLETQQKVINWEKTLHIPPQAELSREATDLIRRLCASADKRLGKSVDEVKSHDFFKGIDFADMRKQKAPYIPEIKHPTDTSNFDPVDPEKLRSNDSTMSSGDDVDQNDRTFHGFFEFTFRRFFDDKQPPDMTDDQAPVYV

B1: Yki clone 18-418 (myristylation-signal prey fusion) (protein)
chain: TISAFYMLTTMSASSNTNSLIEKEIDDEDMLSPIKSNNLVVRVNQDTDDNLQALFDSVLNPGDAKRPLQLPLRMRKLPNSFFTPPAPSHSRANSADSTYDAGSQSSINIGNKASIVQQPDGQSPIAAIPQLQIQPSPQHSRLAIHHSRARSSPASLQQNYNVRARSDAAAANNPNANPSSQQQPAGPTFPENSAQEFPSGAPASSAIDLDAMNTCMSQDIPMSMQTVHKKQRSYDVISPIQLNRQLGALPPGWEQAKTNDGQIYYLNHTTKSTQWEDPRIQYRQQQQILMAERIKQNDVLQTTKQTTTSTIANNLGPLPDGWEQAVTESGDLYFINHIDRTTSWNDPRMQSGLSVLDCPDNLVSSLQIEDNLCSNLFNDAQAIVNPPSSHKPDDLEWYKIN
modifications: myristylation signal
B2: HA-tagged wildtype Yki (Yorkie) (protein)
chain: MCACLIAKIILCSFRLYTISAFYMLTTMSASSNTNSLIEKEIDDEDMLSPIKSNNLVVRVNQDTDDNLQALFDSVLNPGDAKRPLQLPLRMRKLPNSFFTPPAPSHSRANSADSTYDAGSQSSINIGNKASIVQQPDGQSPIAAIPQLQIQPSPQHSRLAIHHSRARSSPASLQQNYNVRARSDAAAANNPNANPSSQQQPAGPTFPENSAQEFPSGAPASSAIDLDAMNTCMSQDIPMSMQTVHKKQRSYDVISPIQLNRQLGALPPGWEQAKTNDGQIYYLNHTTKSTQWEDPRIQYRQQQQILMAERIKQNDVLQTTKQTTTSTIANNLGPLPDGWEQAVTESGDLYFINHIDRTTSWNDPRMQSGLSVLDCPDNLVSSLQIEDNLCSNLFNDAQAIVNPPSSHKPDDLEWYKINYPYDVPDYA
B3: Yki clone 186-418 (myristylation-signal prey fusion) (protein)
chain: AAANNPNANPSSQQQPAGPTFPENSAQEFPSGAPASSAIDLDAMNTCMSQDIPMSMQTVHKKQRSYDVISPIQLNRQLGALPPGWEQAKTNDGQIYYLNHTTKSTQWEDPRIQYRQQQQILMAERIKQNDVLQTTKQTTTSTIANNLGPLPDGWEQAVTESGDLYFINHIDRTTSWNDPRMQSGLSVLDCPDNLVSSLQIEDNLCSNLFNDAQAIVNPPSSHKPDDLEWYKIN
modifications: myristylation signal
B4: Yki clone 229-418 (myristylation-signal prey fusion) (protein)
chain: MNTCMSQDIPMSMQTVHKKQRSYDVISPIQLNRQLGALPPGWEQAKTNDGQIYYLNHTTKSTQWEDPRIQYRQQQQILMAERIKQNDVLQTTKQTTTSTIANNLGPLPDGWEQAVTESGDLYFINHIDRTTSWNDPRMQSGLSVLDCPDNLVSSLQIEDNLCSNLFNDAQAIVNPPSSHKPDDLEWYKIN
modifications: myristylation signal

Experiments:
[1] = target: Sos-Wts bait (human Sos fused to N-terminal fragment of Wts, 1-608) (human; Drosophila) (UniProt Q07889+Q9VA38); test: yeast two-hybrid (Sos recruitment / CytoTrap), Sos-Wts bait
[2] = target: T1, V5-tagged Wts (Warts) (Drosophila); test: co-immunoprecipitation from S2 cells (anti-HA IP, anti-V5 blot)
[3] = target: T1, V5-tagged Wts (Warts) (Drosophila); test: summary of yeast two-hybrid and co-immunoprecipitation from S2 cells
[4] = target: T1, V5-tagged Wts (Warts) (Drosophila); test: co-immunoprecipitation from S2 cells

Binder | binding [1] | binding [2] | binding [3] | binding [4]
B1 | binds |  |  | 
B2 |  | binds | binds | binds
B3 | binds |  |  | 
B4 | binds |  |  | 
